Data reported in PubChem BioAssay AID1508600 (Functional Genomics Laboratory (NCATS/FGL), 2020).
The campaign covered roughly 53,000 sequences. About 3,700 (7%) were called active.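 How the source made its calls: active means gene knockdowns whose robust z-score for IL-1 alpha signal is at least 2 or at most -2, so actives lie on both sides; inactive means the rest.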 This is one part of the list.

Experiment: Components of the Cytosolic LPS Sensing Pathway: Gene Identification via Genome-wide siRNA Screen;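 further: robust z of the log signal after scaling to non-targeting control siRNA wells of the plate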
Details: RAW264.7 macrophages, IL-1a HTRF, actives lie on both sides, screened at 100 nM (by protocol), cells primed 5 h with Pam3CSK4 first
Summary of the method: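 RAW264.7 mouse macrophages reverse-transfected with single siRNAs (100 nM final) for 48h, primed with Pam3CSK4 for 5 hours, then transfected with LipidA for 24 hour. Supernatant IL-1a read by HTRF; values normalized to negative-control median, log-transformed robust z-scores.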

Sequence	z-score
GCUUAACGGGAGUUAUGAGTT against Capn9	inactive: -0.478
CCGGGUGCUGUUCUAUAAGTT against Pecam1	inactive: -0.827
GGAGAUGAUACAUAAUCUATT against Psmd12	inactive: -0.0292
GGAUAUACCAUCAAUGUACTT against Hdac6	inactive: 0.239
CCUUAGUUAGAAAUGUUGATT against Xk	inactive: -0.33
CCUACUUCCGAGGUUUCUUTT against Ifnz	inactive: -0.493
GCCUGCUAGAGGAUUUCAATT against Cep128	inactive: 0.404
CCUGUACAAUUGACCUACATT against Serpinb1c	inactive: 0.0846
CGACAAAAUUACCAGGUCATT against Hmx3	inactive: -0.667
GGGCUAUGAGGUAACCACUTT against Ahcy	inactive: 1.87
GGAACCAGUGCUGCAUUUATT against Defb41	active: -2.05
CGUGACUGCACUUUAAGUATT against Pirb	inactive: 0.373
GCUGGUUGUAGUAAAACAGTT against Resf1	inactive: -1.29
GCGGGAGCUACACACGAUUTT against Dolpp1	inactive: 0.386
GGACUUCACCUACAGCAAGTT against Nr1h2	inactive: 0.168
GGACCAGAGGUUAAUUUAUTT against Herpud1	inactive: -0.926
GGCUGUAAAACCCAAUCUATT against Top3a	inactive: 0.509
GCUGGUGAAGAGCAUAUUCTT against Tfcp2	inactive: -0.0229
GGUGGAGGAACGAAAGUUUTT against Ribc1	inactive: 0.625
GGCUUCAAGGACUUUACAATT against Mefv	inactive: 1.62
GGCCCAGUCUUCUCAAAAATT against Cers2	inactive: 0.249
CCGGUUGCUAGGCUAAACATT against Dcaf7	inactive: 0.33

Sequence	z-score
GGAAAGAACAACAAAGGAGTT against Snx9	inactive: 0.84
GGAUUUCUGACCAUUGAGCTT against Mrgprf	inactive: -1.2
GGUGAGGAACUUCUGGAAUTT against Klra5	inactive: 0.32
GGACAUCAUUCAUGACCCUTT against Rpl8	inactive: -0.0737
GGAGUUGGUACCUUUCCGATT against Thap4	inactive: -0.975
GCUCACUAUGUAAAGAGAATT against Itpk1	inactive: 0.807
GGCUUUAAUCCUAACCCUATT against Zfp3	inactive: -0.658
CCUUGAGAUUUUUAUAAGCTT against Stx5a	inactive: -0.0288
CCAGUCACUGACAAUAAGATT against Kcnj1	inactive: 0.202
CGACUAUAUGCAGAAGUACTT against Cdc27	inactive: 1.07
CGGAGGAAGGCAAGAUGUATT against Tead4	inactive: 0.348
GGAGACCAAAAAGAAAUAATT against Cmas	inactive: 0.622
GGUAGAGCUGCACUUUGGATT against Hddc3	inactive: -1.43
CGAGCUUUCACUGCUACAGTT against Ppargc1b	inactive: -1.35
GCAAGAAGUAUUUUCAGUATT against Galnt4	inactive: 1.34
GUGCUACUGCCUGCCAUUCTT against Lce1b	inactive: 0.397
GGAAACAGAGCAAGGAAAATT against Gas7	inactive: 0.613
GGUAAUUUAAUGACACAUGTT against A130079P16Rik	active: 2.35
GGAAAUUUCAUGAACCCUCTT against Aadat	inactive: 1.36
GGAAUUAAAUGCCAGUACGTT against Ankfy1	inactive: 1.84
CCAUCCAAUAAGGUAAACATT against Neil3	inactive: 1.68
GCUGAACAAUCGCUCAGUATT against N6amt1	inactive: -0.481

A different layout for some results above:

| Sequence | z-score |
| --- | --- |
| GGAUUUCUGACCAUUGAGCTT against Mrgprf | inactive: -1.2 |
| GGUGAGGAACUUCUGGAAUTT against Klra5 | inactive: 0.32 |
| GGACAUCAUUCAUGACCCUTT against Rpl8 | inactive: -0.0737 |
| CGAGCUUUCACUGCUACAGTT against Ppargc1b | inactive: -1.35 |
| GCUGAACAAUCGCUCAGUATT against N6amt1 | inactive: -0.481 |

The list goes on.

Sequence	z-score
GCGCAAACAACACAUCGUCTT against Ccpg1	inactive: 0.503
GCAGGUGAAAUAAAGAAGGTT against Usp45	inactive: 0.0186
GCCUUGGCAUUAUAUAUGGTT against Prom1	inactive: -1.26
GGCUAAAGGAGAACAACAUTT against Bub3	inactive: 0.748
GGACCAAGCCACCAAAACUTT against Vmn1r78	active: -2.28
GCUUCCUCAAUUACUAUGCTT against Apbb2	inactive: 0.874
GCAUUGGCAUGAUGGACCATT against Slc39a1	inactive: 0.851
GACAAAACAAUUACCUACATT against Olfr806	inactive: -0.579
GCGAAAUUCGAGUUCGGUUTT against Col17a1	inactive: 0.0214
GGAUUUCACUUGAGAAUGATT against Grem1	inactive: -0.905
GGACAUUCCCAAAGAAAAUTT against Usp29	inactive: -0.575
GGAAGUUUGUUUGCUGUUATT against Slx4ip	inactive: 1.08
GCAGAGUGACUUUGAAGCGTT against Klf10	inactive: 0.844
GGUCGCUAUUAAGAUCAUUTT against Mark4	inactive: 0.491
GGUAGAAUGAUGUUCAAACTT against Polr2d	inactive: -1.41
GGACAACUUUGAGGAGAUGTT against Tubg2	active: 3.23
GGAGAUUGCACACUUCCAGTT against Nup214	inactive: 0.873
GGAACAAUCACACAAGCUGTT against Gsx2	inactive: 0.0722
CUGGUUUUUAGUCUUUCAUTT against 4930471G03Rik	inactive: 0.357
GGCUCCUCUCCAAGAAUAUTT against Prr14l	active: 2.03
GGAUUGUGGUUGAACACAUTT against Tmem33	inactive: 0.701
GGGUAUGGUGACAGAUAAATT against Cpz	inactive: 0.372

Sequence	z-score
GGUGAUGGUAACUCAACGATT against Edc4	inactive: -0.154
GGUUUUCAAAGAUCUCUAGTT against Efnb2	inactive: 0.869
GGCAUGAUCAUAAUUGGAUTT against Mto1	inactive: -0.179
CCAAUUUAUACUUAGUGCCTT against Cand2	inactive: -0.86
CCUGGGUUGGAUAAAACUUTT against 6030458C11Rik	inactive: -0.0611
GGAGAUGCCCAAUGUUUUCTT against Ehd1	inactive: 0.82
GGGAAUCGAGAAAAUGGAUTT against Prkg2	inactive: -0.548
GCUAGGAAUGCUGAACACUTT against Sh3gl3	inactive: 0.456
CGGUUGAAGAUUGAUUUUGTT against Gnai3	inactive: -0.266
GGAUAACAACGACAUUUCATT against Col6a1	inactive: 1.8
GGUUUUGGACCAGAUGAGCTT against Abi3	inactive: 0.0276
GGUAAAGGGUUCUUGGACATT against Eps15l1	inactive: -0.156
CCUGUAUGGGCAUGAGUUUTT against Ttc8	inactive: 0.508
GGUGUAAGAGCUUUGGCCUTT against Gm5420	active: 2.35
GCUACAAUGACGCAGAGACTT against Kif5a	inactive: -1.21
GAAACGGCAGAUUGCUGCUTT against Vmn2r122	inactive: 0.885
CCAAAAGCAUAUCAGUCGGTT against Olfr1122	inactive: 1.48
GAGAUGGAGCCUGGAAACUTT against Olfr480	inactive: -1.51
GGCUCAAGGCUGAGUUUCATT against En2	inactive: 0.704
GCAAGGAUUACCUAUAGGATT against Rbm12b1	inactive: 0.638
CCUAAUCAACAACUUGGAGTT against Ugcg	inactive: 0.217
GCAAGUGAUGAACCAGUUCTT against Morc2a	inactive: 0.551

Sequence	z-score
GGUGAUCUGAUAGUCAGAUTT against Mtmr10	inactive: 0.724
GGAAAAGAUCAACCAUUAUTT against Ccdc54	inactive: -0.642
GGGCUACUUCCUGACUAAATT against Ube2s	inactive: -0.505
GGAGAUCCGUUCAAGGGUUTT against Olfr557	inactive: 0.73
GCCGGAUUGAGAUCUCUAUTT against 1500015L24Rik	inactive: 0.734
GGACGAAUGAGCAUAGCCUTT against Etl4	inactive: 1.96
GGACAAGAAAAAGAAACGATT against Nkap	inactive: -0.282
GGCAGCUUUUUACACUAGUTT against Vmn1r23	inactive: -0.345
GAUACAUCAACACACUGACTT against Ppy	inactive: 0.217
GGUCAUUCACAAGUCCUUUTT against Serpinb6b	inactive: 0.863
CCGCUUGGCUAGCUUUAUATT against Dzip1	inactive: 0.269
GCUAUCGAAGGAAUAAUACTT against Rnf115	inactive: -0.434
GGCAGUUAGACUGGUGUACTT against Foxa3	inactive: 1.3
GGUAGUUUAAAAUCUGUGATT against St6gal1	inactive: -0.556
GGGCCGAAAUGAAUGAACUTT against Inhba	inactive: 0.618
GGUUAAACUGUGAAUCCAUTT against Setx	inactive: 1.13
CGAGCGAUUCCCAUACAAUTT against Cyp2c23	inactive: 0.0396
GGCUUAGUAAGUGCAAAUATT against Eef1akmt2	inactive: 0.237
GGUGCAGCCACGAAAACAUTT against Lmln	inactive: -0.921
